Reference: a compilation of properties of binary mixtures (doi:10.1007/s10953-017-0608-9)
The densities may have been worked out from excess volumes.

Experiment: xn = mol fraction of the nth substance listed
Settings: 101 kPa

With `CCCCCCCCn1cc[n+](C)c1.[Br-]` + O as the compound, how does the mass density (288.15 K, x1 = 0.0001) read?
The mass density was 999.2 kg/m3.

What about the mass density (288.15 K, x1 = 0.0002) of the same compound?
The mass density was 999.4 kg/m3.

And the mass density (298.15 K, x1 = 0.0001)?
Its mass density is 997.3 kg/m3.
